In article doi:10.1101/2024.10.06.616869:
These are yes or no findings as the source states them, for the method shown. In cells and extracts the contact can be indirect. Binding calls can cover weak binding; strength is not graded here. Where a sequence is shown, tags or fusion partners need not be part of it.

Molecular target: T1, FLAG-tagged full-length Pf3D7_0811400 (P. falciparum) (UniProt C0H4U0)
T1 sequence: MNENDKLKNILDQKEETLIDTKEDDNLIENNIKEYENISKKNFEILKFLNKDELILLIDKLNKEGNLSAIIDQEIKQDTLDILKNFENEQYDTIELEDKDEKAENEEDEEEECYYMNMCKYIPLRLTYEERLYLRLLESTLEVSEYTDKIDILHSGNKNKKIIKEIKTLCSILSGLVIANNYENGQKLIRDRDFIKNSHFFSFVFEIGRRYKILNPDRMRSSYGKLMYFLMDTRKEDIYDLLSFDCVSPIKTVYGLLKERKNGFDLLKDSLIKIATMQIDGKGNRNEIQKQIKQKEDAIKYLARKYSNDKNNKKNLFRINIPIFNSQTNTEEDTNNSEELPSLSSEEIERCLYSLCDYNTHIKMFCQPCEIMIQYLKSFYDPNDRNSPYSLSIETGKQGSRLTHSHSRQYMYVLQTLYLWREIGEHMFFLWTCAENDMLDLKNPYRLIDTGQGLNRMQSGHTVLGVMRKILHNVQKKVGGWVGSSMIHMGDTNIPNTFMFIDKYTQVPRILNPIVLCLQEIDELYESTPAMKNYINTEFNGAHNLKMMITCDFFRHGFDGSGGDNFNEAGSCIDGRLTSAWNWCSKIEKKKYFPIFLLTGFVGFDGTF
Assay: co-IP

binding: binds
Substance: MYC-tagged PfRbx1 (P. falciparum)
